According to patent publication US10138280B2 (INSTITUT PASTEUR, priority 2011, dated 2018):
End groups of sequences in plain letters are not given here.

Assay: general procedure: Fmoc solid-phase peptide synthesis; PS-PHB-Phe Fmoc resin (capacity 0.52 mmol/g), Rapp Polymere; HATU/DIPEA
Conditions: whole synthesis

## VHVQYIDGETDQMLRQDDLDGYTDETIPYSTAEGIKKFEGDGYELFKDNFPAGEKFDNDDTNDQFYTVIF
RP-HPLC, absorbance at 230 nm, LC-MS, scale of the general procedure 100 μmolar
  final HPLC purity: above 90%
Overall isolated, scale of the general procedure 100 μmolar
  isolated yield: 2%
Scale of the general procedure 100 μmolar
  crude yield: 76%
Weight yield, scale 100 umol
  crude yield: 66%
Weight yield, scale of the general procedure 100 μmolar
  crude yield: 65%
